Measured values: PubChem BioAssay AID1347046 (National Center for Advancing Translational Sciences (NCATS), 2019)
The whole screen tested about 1,400 compounds, of which about 940 (67%) were called active. The set was probably picked from earlier hits. The inconclusive results got no clear call from the source; some entries with a clear call stand among them for comparison. Calls come from the whole dose curve. Potencies of inconclusive entries are doubtful fits and often do not repeat.

Protein sequences, listed by entry. Tags and fused reporters are not part of them. Lines headed by an entry give the natural chain unless they say otherwise; changes in a name come on top.
UniProt P20594: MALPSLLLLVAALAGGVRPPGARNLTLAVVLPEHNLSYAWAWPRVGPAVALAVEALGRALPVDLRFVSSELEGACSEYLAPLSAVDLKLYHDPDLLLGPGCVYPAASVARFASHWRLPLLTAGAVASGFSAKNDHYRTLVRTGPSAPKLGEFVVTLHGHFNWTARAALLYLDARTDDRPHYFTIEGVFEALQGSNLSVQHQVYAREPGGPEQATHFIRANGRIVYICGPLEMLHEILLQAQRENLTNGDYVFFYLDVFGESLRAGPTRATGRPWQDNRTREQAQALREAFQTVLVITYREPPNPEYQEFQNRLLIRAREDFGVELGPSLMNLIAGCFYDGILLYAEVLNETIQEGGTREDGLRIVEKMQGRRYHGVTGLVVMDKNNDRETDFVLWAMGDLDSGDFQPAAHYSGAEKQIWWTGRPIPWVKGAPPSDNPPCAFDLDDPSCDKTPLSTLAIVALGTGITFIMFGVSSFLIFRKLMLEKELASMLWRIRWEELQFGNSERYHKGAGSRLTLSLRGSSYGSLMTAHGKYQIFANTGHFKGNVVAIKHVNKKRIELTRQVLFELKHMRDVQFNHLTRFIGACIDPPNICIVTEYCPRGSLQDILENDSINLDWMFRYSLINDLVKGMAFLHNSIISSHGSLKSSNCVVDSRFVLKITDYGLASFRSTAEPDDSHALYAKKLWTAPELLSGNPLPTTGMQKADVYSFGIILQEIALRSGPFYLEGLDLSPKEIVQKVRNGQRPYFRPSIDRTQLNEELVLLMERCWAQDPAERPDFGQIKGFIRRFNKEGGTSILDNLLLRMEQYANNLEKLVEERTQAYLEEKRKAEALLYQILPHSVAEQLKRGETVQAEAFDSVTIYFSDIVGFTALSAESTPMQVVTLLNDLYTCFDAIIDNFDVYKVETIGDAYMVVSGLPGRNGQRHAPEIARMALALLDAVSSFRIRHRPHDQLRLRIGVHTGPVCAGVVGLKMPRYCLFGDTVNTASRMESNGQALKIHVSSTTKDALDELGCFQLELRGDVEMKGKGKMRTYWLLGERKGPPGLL

The compounds below were run against Atrial natriuretic peptide receptor 2 (Homo sapiens) (UniProt P20594) (assay: Natriuretic polypeptide receptor (hNpr2) antagonism - Subtype selectivity assay). Conditions: HEK293 hNpr2 GloSensor cGMP luminescence, CNP-stimulated.
Procedure: F. Fan, B. F. Binkowski, B. L. Butler, P. F. Stecha, M. K. Lewis, K. V. Wood, Novel genetically encoded biosensors using firefly luciferase. ACS Chem Biol 3, 346-351 (2008).
PROTOCOL TABLE (as described by Inglese J, Shamu CE and Guy RK. 2007) SEQUENCE No. (e.g., 1, 2, 3, etc.); PARAMETER (e.g., Cells, Incubation, Reagent, etc.); VALUE and DESCRIPTION. 1. Cells. Seed 1500 HEK293 cGMP-sensor cells expressing hNpr2 per well in 4uL into Greiner 1536-well white/solid bottom high base, TC plates. 2. Incubation. Incubate plated cells at 37C in 5% CO2, 95% RH overnight. 3. Reagent. Add 1uL per well GloSensor reagent from Promega (2% final concentration) or CO2 independent media vehicle control to respective columns of Greiner 1536-well plates. 4. Incubation. Incubate plated cells at ambient temperature for 2 h., protect from light. 5. Compounds. Library compounds and DMSO vehicle control added at 23nL per well, transferred by Pin Tool. 6. Incubation. Incubate plated cells for 30 min. at ambient temperature, protect from light. 7. Detector. GloSensor baseline pre-read luminescence measured using CCD-based camera (Viewlux). 8. Compound. Add 1uL of hNppC peptide to 1 nM final concentration to stimulate hNpr2 or CO2 independent media as vehicle control. 9. Incubation. Incubate treated cells at ambient temperature for 20 min., protect from light. 10. Detector. GloSensor post-hNppC luminescence measured using CCD-based camera (Viewlux). NOTES (numbers refer to Sequence numbers above) 1. HEK293 cells expressing hNpr2 and GIP/pGS-40F were grown to 85-95% confluence (48-72 h) in T175 culture flasks (CO2 independent media supplemented with 10% FBS, 1% Pen/Strep antibiotics, and 1 ug/mL puromycin). Trypsinize and harvest cells from T175 culture flasks and filter through 40 um cell strainer. Cells counted with Invitrogen Countess (30,000,000 - 50,000,000 cells/flask). Cells diluted to a final concentration of 375 cells/uL in CO2 independent media and a Millipore multidrop used to dispense 1500 cells per well (4uL/well) into 13 1536-well Greiner White/Solid bottom, high base tissue-culture treated (TC) plates and one Aurora 1536-well Black/Clear bottom, low base, TC plate (for visual inspection of cell health throughout the duration of the assay). 2. Cells incubated for 24 h. at 37C in 95% RH incubator with metal lid having gas-exchange holes. 3. Prepare GloSensor Reagent (Promega): Reconstitute GloSensor luciferase substrate by adding 8.2mL Hepes buffer to 250mg substrate, mix well, protect from light and stored at -80C. Prepare a fresh 12% GloSensor solution in CO2 independent supplemented plating media (see above). Mix well and store at ambient temperature, protected from light. 1uL 12% GloSensor Luciferase Reagent added (2% final concentration) to respective columns of 13 x 1536-well Greiner plate with BioRaptr, 1uL CO2 independent plating media added to respective columns as vehicle control with BioRaptr. 4. Cells incubated for 2 h. at ambient temperature, protected from light with metal lid having gas-exchange holes. 5. 23nL of library compounds or DMSO vehicle control transferred to 13 Greiner white/solid bottom high base, TC plates in 11 interplate 1:3 titrations (see Yasgar, A. et al. 2008) with Pintool. 6. Cells incubated for 30-50 min. at ambient temperature protected from light with metal lid having gas-exchange holes. 7. Read cellular baseline GloSensor luminescence in presence of test library compounds on the ViewLux [Exposure = 10 s.; Gain = High; Speed = Slow; and Binning = 2X.] 8. hNppC peptide agonist solution prepared at 1 mM (in H2O) stock concentration. From this a working dilution was prepared at 6 nM in CO2 Independent media. 1uL of 6 nM hNppC agonist (1 nM final concentration) or CO2 Independent media vehicle control dispensed into respective columns of 13 x Greiner 1536-well white/solid bottom, tissue culture plates with BioRaptr. 9. Cells incubated for 20 min. at ambient temperature, protected from light with metal lid having gas-exchange holes. 10. […]
Note: nearly all actives have a fitted effect of over 70% in size.
Potency is the fitted concentration of half-maximal effect.

| SMILES | Potency |
| --- | --- |
| CN1Cc2ccccc2-n2ccnc2C12CCN(C(=O)C1(c3ccccc3)CC1)CC2 | inconclusive: 19.3 µM [inhibitor, partial curve] |
| COc1cc2c(cc1Oc1ccccc1)NC(=O)C21CCN(c2cnccn2)CC1 | inconclusive: 35.3 µM [inhibitor, partial curve] |
| COc1cc2c(cc1Oc1ccccc1)NC(=O)C21CCN(Cc2cccc(O)c2)CC1 | inconclusive: 31.4 µM [inhibitor, partial curve] |
| CC(C)C(=O)N1[C@H]2CC[C@@H]1c1cnc(-c3ccc(F)cc3)nc1C2 | active: 21.7 µM |
| CCC(CC)c1cc([C@H]2CN3CC[C@H]2C[C@@H]3CNS(=O)(=O)c2ccccc2C#N)nc(-c2ccncc2)n1 | inconclusive: 13.7 µM [inhibitor, partial curve] |
| CCC(CC)c1cc([C@H]2CN3CC[C@H]2C[C@@H]3CNC(=O)COc2ccccc2)nc(-c2ccncc2)n1 | active: 17.2 µM |
| Cc1cccc(OCC(=O)N2[C@H]3CC[C@@H]2c2cnc(-c4ccc(F)cc4)nc2C3)c1 | inconclusive: 24.3 µM [inhibitor, partial curve] |
| COCCn1c(C)cc(C(=O)N2[C@H]3CC[C@@H]2c2cnc(-c4ccc(F)cc4)nc2C3)c1C | active: 15.3 µM |
| COc1ccc(CC(=O)N2CCC3(CC2)c2nccn2-c2ccccc2CN3C)cc1 | inconclusive: 19.3 µM [inhibitor, partial curve] |
| CC[C@H]1CN2CC[C@H]1C[C@@H]2CN(Cc1cccs1)Cc1cccs1 | inconclusive: 19.8 µM [inhibitor, partial curve] |
| COc1cc2c(cc1OCc1ccccc1)NC(=O)C21CCN(c2ccccn2)CC1 | inconclusive: 35.3 µM [inhibitor, partial curve, poor fit] |
